This passage reports Tmax results from patent US12048691B2 (SPERO THERAPEUTICS, INC., priority 2020, dated 2024).

Where a name gives a salt, the structure may show the parent alone.

The nature of the data set: clinical. As to conditions: human, in vivo, po.

As usually defined, the Tmax is the time at which the peak concentration occurs. Consider `C[C@@H](O)[C@H]1C(=O)N2C(C(=O)OCOC(=O)C(C)(C)C)=C(SC3CN(C4=NCCS4)C3)[C@H](C)[C@H]12` [Tebipenem pivoxil HBr, tebipenem pivoxil hydrobromide], for which the Tmax turned out to be 1 h.
